PubChem BioAssay AID1259254, NCATS, 2017
In all, the deposit lists about 59,000 reagents; this is a random part of them. About 1,550 of them (2.6%) count as active. 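G2 share is only a proxy for re-replication; each gene was hit by three separate siRNAs, and active genes were retested.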 Entries without a mark were called inactive. Reagents against one gene are numbered here. Further read-outs or replicates are left out here. Not stated in the record: the amount of reagent.

Aim: 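Genome-wide screen for genes that prevent DNA re-replication in cancer cells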 (primary screen)
Cell system: human HCT116 colorectal cancer cells
Reagent: single siRNA against human genes
Timing: 3 days
Measurement: 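Nuclei stained with Hoechst and imaged; cell-cycle phase assigned by DNA content; G2 share scaled per plate, non-targeting siRNA 0%, GMNN siRNA 100%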
Scale: G2 robust z-score: higher = more G2 cells, more excess DNA replication
Rule for the call: 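Active siRNAs have a G2 robust z of 5 or more median absolute deviations over the median, which in these data means about 38% or higher of GMNN control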

gene knocked down	reagent no.	G2 robust z-score
BARHL1 (BarH like homeobox 1)	1	0.467
BARHL1 (BarH like homeobox 1)	2	-1.06
BARHL1 (BarH like homeobox 1)	3	0.197
OR5M9 (olfactory receptor family 5 subfamily M member 9)	1	-0.768
OR5M9 (olfactory receptor family 5 subfamily M member 9)	2	0.0821
OR5M9 (olfactory receptor family 5 subfamily M member 9)	3	0.328
PARGP1 (PARG pseudogene 1)	1	-0.816
PARGP1 (PARG pseudogene 1)	2	0.116
PARGP1 (PARG pseudogene 1)	3	0.25
GRPR (gastrin releasing peptide receptor)	1	0.247
GRPR (gastrin releasing peptide receptor)	2	0.0765
GRPR (gastrin releasing peptide receptor)	3	-0.441
NOC3L (NOC3 like DNA replication regulator)	1	-0.151
NOC3L (NOC3 like DNA replication regulator)	2	-0.104
NOC3L (NOC3 like DNA replication regulator)	3	1.02
DMTF1 (cyclin D binding myb like transcription factor 1)	1	-0.681
DMTF1 (cyclin D binding myb like transcription factor 1)	2	0.615
DMTF1 (cyclin D binding myb like transcription factor 1)	3	-0.318
IL6ST (interleukin 6 cytokine family signal transducer)	1	0.992
IL6ST (interleukin 6 cytokine family signal transducer)	2	-1.57
IL6ST (interleukin 6 cytokine family signal transducer)	3	-1.1
CLEC11A (C-type lectin domain containing 11A)	1	-0.611
CLEC11A (C-type lectin domain containing 11A)	2	-0.613
CLEC11A (C-type lectin domain containing 11A)	3	-0.985
PCDHA2 (protocadherin alpha 2)	1	-1.07
PCDHA2 (protocadherin alpha 2)	2	-0.848
PCDHA2 (protocadherin alpha 2)	3	1.54
SFMBT1 (Scm like with four mbt domains 1)	1	6.72 (active)
SFMBT1 (Scm like with four mbt domains 1)	2	0.472
SFMBT1 (Scm like with four mbt domains 1)	3	-0.689
ZDHHC11B (zDHHC palmitoyltransferase 11B (putative))	1	2.6
ZDHHC11B (zDHHC palmitoyltransferase 11B (putative))	2	0.207
ZDHHC11B (zDHHC palmitoyltransferase 11B (putative))	3	5.7 (active)
VPS28 (VPS28 subunit of ESCRT-I)	1	0.62
VPS28 (VPS28 subunit of ESCRT-I)	2	-0.0166
VPS28 (VPS28 subunit of ESCRT-I)	3	-0.0282
FIGNL2 (fidgetin like 2)	1	1.09
FIGNL2 (fidgetin like 2)	2	-0.698
FIGNL2 (fidgetin like 2)	3	-0.119
ST20-AS1 (ST20 antisense RNA 1)	1	0.509
ST20-AS1 (ST20 antisense RNA 1)	2	2.76
ST20-AS1 (ST20 antisense RNA 1)	3	-0.188
RABIF (RAB interacting factor)	1	2.01
RABIF (RAB interacting factor)	2	3.72
RABIF (RAB interacting factor)	3	-0.575
LRRC37A (leucine rich repeat containing 37A)	1	2.32
LRRC37A (leucine rich repeat containing 37A)	2	2.96
LRRC37A (leucine rich repeat containing 37A)	3	-0.731

Entries above whose target name starts with O or o (3):
gene knocked down	reagent no.	G2 robust z-score
OR5M9 (olfactory receptor family 5 subfamily M member 9)	1	-0.768
OR5M9 (olfactory receptor family 5 subfamily M member 9)	2	0.0821
OR5M9 (olfactory receptor family 5 subfamily M member 9)	3	0.328
